Test results as given in the supplement of paper PMC9233669.
Variants at the background level are over-represented here.

Assays:
biotinyl-Val-oxazolone = test: self-aminoacylation, catalytic enhancement (BVO) (fold over background); higher = more active; k-Seq, kA / k0A0; sequences stand for … in GGGAAUGGAUCCACAUCUACGAAUUC…UUCACUGCAGACUUGACGAAGCUG
Procedure, shortened: (§1)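 Mutagenized RNA pools with a 21-nt variable region (0.43 μM) reacted with each biotinyl-aminoacyl-oxazolone at 2–1250 μM. Reactions ran in 50 μL HEPES/NaCl/KCl/MgCl2/CaCl2 buffer with 5% acetonitrile, pH 6.9–7.0, for 90 minutes at room temperature. Streptavidin-captured RNA was quantified by triplicate qPCR and Illumina sequencing, and per-sequence fraction reacted was fit to a pseudo-first-order model with 1000 bootstraps. Catalytic enhancement is median kA divided by the uncatalyzed rate, the low-activity peak of a bimodal Gaussian fit.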

biotinyl-Phe-oxazolone = test: self-aminoacylation, catalytic enhancement (BFO) (fold over background); higher = more active; k-Seq, kA / k0A0; sequences stand for … in GGGAAUGGAUCCACAUCUACGAAUUC…UUCACUGCAGACUUGACGAAGCUG
Procedure, shortened: as §1

biotinyl-Leu-oxazolone = test: self-aminoacylation, catalytic enhancement (BLO) (fold over background); higher = more active; k-Seq, kA / k0A0; sequences stand for … in GGGAAUGGAUCCACAUCUACGAAUUC…UUCACUGCAGACUUGACGAAGCUG
Procedure, shortened: as §1

biotinyl-Trp-oxazolone = test: self-aminoacylation, catalytic enhancement (BWO) (fold over background); higher = more active; k-Seq, kA / k0A0; sequences stand for … in GGGAAUGGAUCCACAUCUACGAAUUC…UUCACUGCAGACUUGACGAAGCUG
Procedure, shortened: as §1

biotinyl-Ile-oxazolone = test: self-aminoacylation, catalytic enhancement (BIO) (fold over background); higher = more active; k-Seq, kA / k0A0; sequences stand for … in GGGAAUGGAUCCACAUCUACGAAUUC…UUCACUGCAGACUUGACGAAGCUG
Procedure, shortened: as §1

biotinyl-Met-oxazolone = test: self-aminoacylation, catalytic enhancement (BMO) (fold over background); higher = more active; k-Seq, kA / k0A0; sequences stand for … in GGGAAUGGAUCCACAUCUACGAAUUC…UUCACUGCAGACUUGACGAAGCUG
Procedure, shortened: as §1

Sequence	self-aminoacylation (biotinyl-Val-oxazolone)	self-aminoacylation (biotinyl-Phe-oxazolone)	self-aminoacylation (biotinyl-Leu-oxazolone)	self-aminoacylation (biotinyl-Trp-oxazolone)	self-aminoacylation (biotinyl-Ile-oxazolone)	self-aminoacylation (biotinyl-Met-oxazolone)
AAGUUUGCUAAUAGACGCAAC [Fam3.1 aminoacylation ribozyme variant]	0.928	1.54	1.04	1.05	0.915	0.928
AAGUUUGCUAAUAGACGUAAG [Fam3.1 aminoacylation ribozyme variant]	0.635	0.615	0.631	0.684	0.611	0.438
AAGUUUGCUAAUAGGCGCACG [Fam3.1 aminoacylation ribozyme variant]	0.833	2.42	0.865	0.485	0.981	0.568
AAGUUUGCUAAUAGUAGUAAG [Fam3.1 aminoacylation ribozyme variant]	0.886	1.45	1.08	1.28	1.13	1.3
AAGUUUGCUAAUAGUCGAAGG [Fam3.1 aminoacylation ribozyme variant]	1.02	1.93	1.04	1.07	1.48	1.31
AAGUUUGCUAAUAGUCGAAUG [Fam3.1 aminoacylation ribozyme variant]	0.903	1.48	0.88	1.17	1.09	1.17
AAGUUUGCUAAUAGUCGCACG [Fam3.1 aminoacylation ribozyme variant]	0.825	1.19	0.847	0.908	0.887	0.89
AAGUUUGCUAAUAGUCGCAGU [Fam3.1 aminoacylation ribozyme variant]	1.34	8.27	1.66	3.14	1.33	1.91
AAGUUUGCUAAUAGUCGCAUA [Fam3.1 aminoacylation ribozyme variant]	1.22	1.58	0.954	1.23	1.21	0.936
AAGUUUGCUAAUAGUCGCCAC [Fam3.1 aminoacylation ribozyme variant]	1.1	1	1.29	1.28	1.25	1.12
AAGUUUGCUAAUAGUCGGAGG [Fam3.1 aminoacylation ribozyme variant]	0.997	1.58	1.11	1.71	0.994	1.1
AAGUUUGCUAAUAGUCGUCAG [Fam3.1 aminoacylation ribozyme variant]	0.905	2.16	0.715	1.26	0.795	0.638
AAGUUUGCUAAUAGUCUCAAA [Fam3.1 aminoacylation ribozyme variant]	1.09	1.77	1.08	0.983	1.13	1.03
AAGUUUGCUAAUAGUCUCAAU [Fam3.1 aminoacylation ribozyme variant]	1.14	1.42	0.834	0.89	1.11	0.931
AAGUUUGCUAAUAGUGGCUAG [Fam3.1 aminoacylation ribozyme variant]	0.862	1.52	0.65	0.748	0.811	0.777
AAGUUUGCUAAUAGUUGCAAA [Fam3.1 aminoacylation ribozyme variant]	1.37	1.69	1.17	1.65	1.44	1.35
AAGUUUGCUAAUCCUCGCAAG [Fam3.1 aminoacylation ribozyme variant]	0.733	0.881	0.725	0.599	0.706	0.628
AAGUUUGCUAAUCGUCGAAAG [Fam3.1 aminoacylation ribozyme variant]	0.965	1.72	0.772	0.986	0.971	0.802
AAGUUUGCUAAUCGUCGCAUG [Fam3.1 aminoacylation ribozyme variant]	0.923	0.667	0.957	0.804	1.03	0.922
AAGUUUGCUAAUGGGCGCAAG [Fam3.1 aminoacylation ribozyme variant]	0.874	0.784	1.08	1.5	0.937	0.695
AAGUUUGCUAAUGGUCGCAAG [Fam3.1 aminoacylation ribozyme variant]	0.675	0.985	0.569	0.702	0.632	0.587
AAGUUUGCUAAUUGUCACAAG [Fam3.1 aminoacylation ribozyme variant]	0.901	1.08	0.991	1.15	1.1	0.983
AAGUUUGCUACAAGUCGCAAG [Fam3.1 aminoacylation ribozyme variant]	1.06	1.66	1.01	0.99	1.24	1.71
AAGUUUGCUACUAGACGCAAG [Fam3.1 aminoacylation ribozyme variant]	0.469	0.747	0.608	0.938	0.615	0.448
AAGUUUGCUACUAGUCGCAGG [Fam3.1 aminoacylation ribozyme variant]	1.39	1.2	1.29	1.53	1.5	1.24
AAGUUUGCUACUAGUCGCUAG [Fam3.1 aminoacylation ribozyme variant]	0.895	1.03	0.667	0.856	0.893	0.641

Sequence	self-aminoacylation (biotinyl-Val-oxazolone)	self-aminoacylation (biotinyl-Phe-oxazolone)	self-aminoacylation (biotinyl-Leu-oxazolone)	self-aminoacylation (biotinyl-Trp-oxazolone)	self-aminoacylation (biotinyl-Ile-oxazolone)	self-aminoacylation (biotinyl-Met-oxazolone)
AAGUUUGCUAGGAGUCGCAAG [Fam3.1 aminoacylation ribozyme variant]	0.745	0.649	0.459	1.02	0.788	0.673
AAGUUUGCUAGUAGUCGCAAC [Fam3.1 aminoacylation ribozyme variant]	0.886	1.34	0.92	1.18	0.987	0.802
AAGUUUGCUAGUAGUCUCAAG [Fam3.1 aminoacylation ribozyme variant]	0.939	1.19	0.721	0.983	1.04	0.945
AAGUUUGCUAGUAGUUGCAAG [Fam3.1 aminoacylation ribozyme variant]	0.737	0.949	0.791	1.1	0.985	1.04
AAGUUUGCUAGUGGUCGCAAG [Fam3.1 aminoacylation ribozyme variant]	0.761	1.52	0.993	1.35	0.941	1.33
AAGUUUGCUAUGAGUCGCAAG [Fam3.1 aminoacylation ribozyme variant]	0.974	0.664	0.778	0.54	0.692	0.644
AAGUUUGCUAUUAGUAGCAAG [Fam3.1 aminoacylation ribozyme variant]	1.21	1.24	1.03	1.33	0.955	1.31
AAGUUUGCUCAUAGUCGAAAG [Fam3.1 aminoacylation ribozyme variant]	1.16	1.96	1.13	1.46	0.912	1.19
AAGUUUGCUCAUAGUCGCACG [Fam3.1 aminoacylation ribozyme variant]	1.14	1.64	0.892	1.22	1.05	0.778
AAGUUUGCUCAUAGUCGCCAG [Fam3.1 aminoacylation ribozyme variant]	1.19	0.939	1.35	1.45	1.24	1.49
AAGUUUGCUCAUAGUCGGAAG [Fam3.1 aminoacylation ribozyme variant]	0.75	1.78	0.893	1.12	0.755	0.755
AAGUUUGCUGAUAGUCGCAAC [Fam3.1 aminoacylation ribozyme variant]	1.22	2	1.2	0.93	1.25	0.997
AAGUUUGCUGAUAGUCGCACG [Fam3.1 aminoacylation ribozyme variant]	1.39	1.05	1.41	1.78	1.25	1.09
AAGUUUGCUGAUAGUGGCAAG [Fam3.1 aminoacylation ribozyme variant]	0.891	0.477	0.993	0.629	0.708	0.897
AAGUUUGCUGAUAUUCGCAAG [Fam3.1 aminoacylation ribozyme variant]	0.899	1.3	0.901	1.29	0.991	0.852
AAGUUUGCUUUUAGUCGCAAG [Fam3.1 aminoacylation ribozyme variant]	0.888	1.38	0.839	1.21	0.764	0.724
AAGUUUGGUAAUAGUCGCAAU [Fam3.1 aminoacylation ribozyme variant]	1.62	3.13	1.8	2.14	2.02	1.65
AAGUUUGUGAAUAGUCGCAAG [Fam3.1 aminoacylation ribozyme variant]	1.12	1.62	1.52	1.49	1.31	1.33
AAGUUUGUUAAUAGUCGCCAG [Fam3.1 aminoacylation ribozyme variant]	0.959	1.01	1.11	1.28	1.28	1.1
AAGUUUGUUAAUAGUCGCUAG [Fam3.1 aminoacylation ribozyme variant]	0.832	1.57	0.78	0.885	0.883	0.884
AAUACCCUGGUCAUCGAGCGA [Fam2.1 aminoacylation ribozyme variant]	1.66	1.56	1.55	2.75	1.65	2.03
AAUGACCUAGGUCAUCGGGUG [Fam2.2 aminoacylation ribozyme variant]	3.56	26.1	4.85	5.22	3.66	4.56
ACACACUUAAAGCAAUCGGUC [Fam1B.1 aminoacylation ribozyme variant]	1.11	1.23	0.923	0.971	1.08	0.917
ACGUUUGAUAAUAGUCGCAAG [Fam3.1 aminoacylation ribozyme variant]	1.06	1.66	0.839	1.21	1.09	1.02
ACUACCUUGGUCAUCGAGUGA [Fam2.1 aminoacylation ribozyme variant]	3.23	10.5	4.02	5.82	2.96	3.77
